The cell viability is a read-out of living cells in per cent, often relative to untreated cells.

Each structure is given as a SMILES string. “And” between values parts separate entries of the source, which are not always exact repeats. Equal entries are not always repeated. Structures can show the parent of a compound that is named as a salt. Some of the results follow. The data scatter; read single values as rough.

In this test the test system is Peyronie's disease tunica albuginea primary fibroblasts. The test is described as follows: cell viability (DRAQ5 nuclear stain) relative to TGF-beta1-only control; higher = more viable cells. Particulars: 10 µM; TGF-beta1 10 ng/mL; 72 h.
With `c1ccc([C@H]2CN3CCSC3=N2)cc1` [Levamisole hydrochloride], the cell viability amounted to 90.5%.
With `COc1ccc(C2CNC(=O)C2)cc1OC1CCCC1` (configuration not stated) [Rolipram], the cell viability was determined as 106%.
For `CCCNCC(O)COc1ccccc1C(=O)CCc1ccccc1` (configuration not stated) [Propafenone HCl], the cell viability came to 81.5%.
`COc1cc([C@@H]2c3cc4c(cc3[C@@H](O[C@@H]3O[C@@H]5CO[C@@H](C)O[C@H]5[C@H](O)[C@H]3O)[C@H]3COC(=O)[C@H]23)OCO4)cc(OC)c1O` [Etoposide]: the cell viability was found to be 79.2%.
Take `CNS(=O)(=O)C[C@H]1CC[C@H](N(C)c2[nH]cnc3nccc2-3)CC1`: the cell viability was 85.5%.
For `COc1ccccc1OCC(O)CN1CCN(CC(=O)Nc2c(C)cccc2C)CC1` (configuration not stated) [Ranolazine 2HCl] the value was 96.1%; for `COc1ccccc1OCC(O)CN1CCN(CC(=O)Nc2c(C)cccc2C)CC1` (configuration not stated) [Ranolazine], 92.7%; for `C[C@H]1C[C@@H]2[C@H]([C@@H](O)C[C@@]3(C)[C@H]2CC[C@]3(O)C(=O)CO)[C@@]2(C)C=CC(=O)C=C12` [Methylprednisolone], 82.5%.
For `COc1cc2c(Oc3ccc4[nH]c(C)cc4c3F)ncnc2cc1OCCCN1CCCC1` [Cediranib (AZD2171)] the value was 42.9%; for `C[C@H]1CNCCCN1S(=O)(=O)c1cccc2cncc(F)c12` [Ripasudil (K-115) hydrochloride dihydrate], 53.9%; for `O=C(O)c1cc(-c2ccccc2)nc2ccccc12` [Cinchophen], 23.9%.
For `CC(=O)O[C@]1(C(C)=O)CC[C@H]2[C@@H]3C[C@H](C)C4=CC(=O)CC[C@]4(C)[C@H]3CC[C@@]21C` [Medroxyprogesterone acetate] the value was 88.6%; for `CCn1c(=O)c(-c2cc[nH]n2)cc2c(C)nc(N)nc21`, 69.4%; for `CN(C)c1nc(N(C)C)nc(N(C)C)n1` [Altretamine], 52.2%.
Regarding `C[C@@H]1CCN(C(=O)CC#N)C[C@@H]1N(C)c1ncnc2[nH]ccc12`, the cell viability was 89.4% and 99.9%.
In the case of `O=c1[nH]c(=O)n(C2CCCO2)cc1F` (configuration not stated), the cell viability turned out to be 92%.
In the case of `COc1ccc([C@]2(C#N)CC[C@@H](C(=O)O)CC2)cc1OC1CCCC1` [Cilomilast], the cell viability worked out at 102%.
With `COCC[n+]1c2c(n(Cc3cnccn3)c1C)C(=O)c1ccccc1C2=O` [YM155 (Sepantronium Bromide)], the cell viability turned out to be 13.4%.
With `O=c1oc2ccccc2c(O)c1Cc1c(O)c2ccccc2oc1=O` [Dicoumarol], the cell viability was determined as 80.4%.
Turning to `CC(=O)[C@]1(O)Cc2c(O)c3c(c(O)c2[C@@H](O[C@H]2C[C@H](N)[C@H](O)[C@H](C)O2)C1)C(=O)c1ccccc1C3=O` [Idarubicin HCl], the cell viability was 22.8%.
For `Cc1nc(=O)c2cc(CN(C)c3ccc(C(=O)N[C@@H](CCC(=O)O)C(=O)O)s3)ccc2[nH]1` [Raltitrexed] the value was 64.4%.
For `CN1CCN(CCCN2c3ccccc3Sc3ccc(Cl)cc32)CC1` [Prochlorperazine Dimaleate] the value was 80.4%.
For `CN1CCN(CCCN2c3ccccc3Sc3ccc(Cl)cc32)CC1` [Prochlorperazine dimaleate salt], the cell viability worked out at 85.1%.
As to `CC(/C=C1\SC(=S)N(CC(=O)O)C1=O)=C\c1ccccc1` [Epalrestat], the cell viability was 88.9%.
`C[C@H](CCC(=O)O)[C@H]1CC[C@H]2[C@@H]3[C@H](O)C[C@@H]4C[C@H](O)CC[C@]4(C)[C@H]3CC[C@]12C` [Chenodeoxycholic Acid]: the cell viability is 84.8%.
As to `NNc1nncc2ccccc12` [Hydralazine HCl], the cell viability is 111%.
For `CC(=O)OCC(CCn1cnc2cnc(N)nc21)COC(C)=O` [Famciclovir], the cell viability is 95.3%.
For `C1CNCCN1` [Piperazine], the cell viability came out at 83.4%.
For `CC[C@H](C)C(=O)O[C@H]1CCC=C2C=C[C@H](C)[C@H](CC[C@@H]3C[C@@H](O)CC(=O)O3)[C@H]21` [Mevastatin] the value was 50.7%; for `Nc1cc(C(Cl)=C(Cl)Cl)c(S(N)(=O)=O)cc1S(N)(=O)=O` [Clorsulon], 80.3%; for `Cc1nnc(NS(=O)(=O)c2ccc(N)cc2)s1` [Sulfamethizole], 95.4%.
For `O=C1C2CC3CC1CC(O)(C3)C2` [Idramantone] the value was 94.2%; for `CCN1CCN(c2cc3c(cc2F)c(=O)c(C(=O)O)cn3C2CC2)CC1` [Enrofloxacin], 100%; for `COc1cc(NS(C)(=O)=O)ccc1Nc1c2ccccc2nc2ccccc12` [Amsacrine hydrochloride], 51.2%.
For `C[C@H]1CN(C[C@H](Cc2ccccc2)C(=O)NCC(=O)O)CC[C@@]1(C)c1cccc(O)c1` [Alvimopan dihydrate] the value was 101%.
For the molecule `O=C(O)CCCc1ccccc1` [Sodium Phenylbutyrate], the cell viability is 97.7%.
With `Cc1cnc(NC(=O)C2=C(O)c3ccccc3S(=O)(=O)N2C)s1` [Meloxicam], the cell viability was 88.9%.
Turning to `CC1(C)O[C@@H]2C[C@H]3[C@@H]4CCC5=CC(=O)C=C[C@]5(C)[C@@]4(F)[C@@H](O)C[C@]3(C)[C@]2(C(=O)CO)O1` [Triamcinolone Acetonide], the cell viability was 78.3%.
On to `NC(=NCCCCCCN=C(N)N=C(N)Nc1ccc(Cl)cc1)N=C(N)Nc1ccc(Cl)cc1` [Chlorhexidine?2HCl], for which the cell viability was 70.6%.
As to `OC1(c2ccc(Cl)c(C(F)(F)F)c2)CCN(CCCC(c2ccc(F)cc2)c2ccc(F)cc2)CC1` [Penfluridol], the cell viability stood at 66.6%.
For the molecule `C[C@@H]1C[C@H]2[C@@H]3CCC4=CC(=O)C=C[C@]4(C)[C@@]3(F)[C@@H](O)C[C@]2(C)[C@@]1(O)C(=O)CO` [Dexamethasone (DHAP)], the cell viability was found to be 84.5%.
With `O=C(O)COC(=O)Cc1ccccc1Nc1c(Cl)cccc1Cl` [Aceclofenac], the cell viability stood at 86.1%.
Regarding `COc1cc2nccc(Oc3ccc(NC(=O)C4(C(=O)Nc5ccc(F)cc5)CC4)cc3)c2cc1OC`, the cell viability was 58.3%.
Take `COc1cc2nccc(Oc3ccc(NC(=O)C4(C(=O)Nc5ccc(F)cc5)CC4)cc3)c2cc1OC` [Cabozantinib malate (XL184)]: the cell viability was 66.1%.
Consider `O=C(O)/C=C/c1ccc(Cn2ccnc2)cc1` [Ozagrel sodium], for which the cell viability stood at 91%.
For the molecule `O=C(O)/C=C/c1ccc(Cn2ccnc2)cc1` [Ozagrel], the cell viability was determined as 92.5%.
Turning to `O=C(O)/C=C/c1ccc(Cn2ccnc2)cc1` [Ozagrel HCl], the cell viability turned out to be 82.9%.
With `CCCc1nc(C)c2c(=O)nc(-c3cc(S(=O)(=O)N4CCN(CC)CC4)ccc3OCC)[nH]n12` [Vardenafil HCl Trihydrate], the cell viability came out at 95.3%.
For `COc1cc(O)c(C(=O)Nc2nc(C(=O)NCCN(C(C)C)C(C)C)cs2)cc1OC` [Acotiamide], the cell viability turned out to be 79.8%.
For the molecule `COc1cc(O)c(C(=O)Nc2nc(C(=O)NCCN(C(C)C)C(C)C)cs2)cc1OC` [Acotiamide hydrochloride], the cell viability was 92%.
For the molecule `CC(C)(Oc1ccc(C(=O)c2ccc(Cl)cc2)cc1)C(=O)O` [Fenofibric acid], the cell viability is 97%.
For `COCCOC(=O)C1=C(C)NC(C)=C(C(=O)OC/C=C/c2ccccc2)C1c1cccc([N+](=O)[O-])c1` (configuration not stated) [Cilnidipine] the value was 94%; for `CCOc1nc2cccc(C(=O)O)c2n1Cc1ccc(-c2ccccc2-c2noc(=O)[nH]2)cc1` [Azilsartan], 91.1%.
Take `CN(C)CCOc1ccc(/C(=C(/CCCl)c2ccccc2)c2ccccc2)cc1` [Toremifene Citrate]: the cell viability is 80.6%.
Take `CCCN(CCC)C(=O)C1=Cc2ccc(-c3ccc(C(=O)N4CCCC4)cc3)cc2N=C(N)C1` [Motolimod (VTX-2337)]: the cell viability amounted to 78.5%.
For `O=C(NCCO[N+](=O)[O-])c1cccnc1` [Nicorandil], the cell viability amounted to 91.2%.
For `C=C1/C(=C\C=C2/CCC[C@]3(C)[C@@H]([C@H](C)/C=C/[C@@H](O)C4CC4)CC[C@@H]23)C[C@@H](O)C[C@@H]1O` [Calcipotriene] the value was 85%.
As to `Cc1ccc(Cl)c(Nc2ccccc2C(=O)O)c1Cl` [Meclofenamate Sodium], the cell viability stood at 77.3%.
As to `CC1=Nc2ccc(Cl)cc2S(=O)(=O)N1` [Diazoxide], the cell viability is 91.6%.
For `CO[C@@]12[C@H](COC(N)=O)C3=C(C(=O)C(C)=C(N)C3=O)N1C[C@@H]1N[C@@H]12` [Mitomycin C], the cell viability stood at 35.2%.
As to `Oc1ccc(OCc2ccccc2)cc1` [Monobenzone], the cell viability came to 87.7%.
For `CC(=O)Oc1c(C)c(C)c2c(c1C)CCC(C)(CCC[C@H](C)CCC[C@H](C)CCCC(C)C)O2` (some centres not stated) [Vitamin E Acetate] the value was 92.6%; for `C[C@H]1C[C@H]2[C@@H]3CCC4=CC(=O)C=C[C@]4(C)[C@@]3(F)[C@@H](O)C[C@]2(C)[C@@]1(O)C(=O)CO` [Betamethasone], 76.2%; for `CNC(=O)[C@H](Cc1c[nH]c2ccccc12)NC(=O)[C@@H](CC(=O)NO)CC(C)C` [Ilomastat (GM6001, Galardin)], 86.7%.
For `CC[C@H](C)[C@@H]1NC(=O)[C@H](CCCNC(=N)N)NC(=O)[C@H](CC(=O)O)NC(=O)[C@H](CCSC)NC(=O)[C@H](CCCNC(=N)N)NC(=O)CNC(=O)CNC(=O)[C@H](Cc2ccccc2)NC(=O)[C@@H](NC(=O)[C@H](CO)NC(=O)[C@H](CO)NC(=O)[C@H](CCCNC(=N)N)NC(=O)[C@H](CCCNC(=N)N)NC(=O)[C@H](CC(C)C)NC(=O)[C@@H](N)CO)CSSC[C@@H](C(=O)N[C@@H](CC(N)=O)C(=O)N[C@@H](CO)C(=O)N[C@@H](Cc2ccccc2)C(=O)N[C@@H](CCCNC(=N)N)C(=O)N[C@@H](Cc2ccc(O)cc2)C(=O)O)NC(=O)CNC(=O)[C@H](CC(C)C)NC(=O)CNC(=O)[C@H](CO)NC(=O)[C@H](CCC(N)=O)NC(=O)[C@H](C)NC(=O)CNC1=O` [Carperitide Acetate] the value was 96.8%.
With `COC(=O)N(C)c1c(N)nc(-c2nn(Cc3ccccc3F)c3ncccc23)nc1N` [Riociguat (BAY 63-2521)], the cell viability was found to be 102%.
Regarding `C[C@H](O)C(=O)Nc1c(I)c(C(=O)NC(CO)CO)c(I)c(C(=O)NC(CO)CO)c1I` [Iopamidol], the cell viability amounted to 88.7%.

The record behind these values is the supplement of paper PMC9744312.
